# The list shows only some results of the screen, not a fair sample: it is rich in T/C values a quarter to a half above the control, in often repeated tests (any T/C) and in doses without a T/C. Further doses and runs are listed elsewhere. T/C: endpoint of the treated group in % of that of the vehicle group. Some doses have a count of surviving animals in place of a T/C: the source files T/C as zero there, which appears to mark a toxic dose or a test without result, not a measured value. Some doses without a T/C left all or most animals alive at the check, yet need not have been tolerated: the source hardly ever lists a survival T/C far under the control, and the zero likely stands for such cases as well. Survivors were counted at the toxicity check, usually on the fifth day, unless a day is given; later deaths do not show. Schedules are NCI's codes, taken here to give the interval after Q, in days (D) or hours (H), and the number of doses after X. Some structures stand for samples that the source files as different forms (salt, stereo form or complex); doses refer to the form tested. Some entries were tested several times; their values stand side by side, smallest first. For survival time, the PubChem record calls one and a half times the control and up active, and a quarter to a half above the control has no call in these data; cut-offs in other NCI protocols can differ. Some T/C values are followed by the survivors on the day toxicity was checked, most often the fifth; where none is given, no animal had died by that day. Marks such as (2×) give the number of equal values in this list.
# System: BDF1 mice, P388 leukemia ip, median survival T/C
# Assay: NCI In Vivo Anticancer Drug Screen. Data for tumor model P388 Leukemia (intraperitoneal) in B6D2F1 (BDF1) mice
# Conditions: T/C endpoint: median survival time, higher T/C = longer survival
# Method in brief: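 Compound-treated tumour-bearing mice were compared with vehicle-treated controls. Survival was recorded, and the value is the treated-group measurement divided by the control-group measurement (T/C).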
# [1] = dose: 40.0 mg/kg/injection, schedule: Q01DX009 (ip), vehicle: water
structure (smiles),measurement,setting,value
COc1cc2c[n+](C)c3c4cc5c(cc4ccc3c2cc1OC)OCO5,T/C,"dose: 40.0 mg/kg/injection, schedule: Q01DX009 (ip), vehicle: Klucel (hydroxypropylcellulose) (HPC), evaluated on day 35",137 % of control
same,survivor count,"dose: 40.0 mg/kg/injection, schedule: Q01DX009 (ip), vehicle: Klucel (hydroxypropylcellulose) (HPC)",6 of 6
same,T/C,"dose: 40.0 mg/kg/injection, schedule: Q01DX009 (ip), vehicle: saline","150, 171, 172, 200 % of control"
same,T/C,[1],90 and 178 % of control [5 of 6 alive]
same,survivor count,[1],"2 of 6, 5 of 6, 7 of 8, 6 of 6"
same,T/C,"dose: 40.0 mg/kg/injection, schedule: Q04DX003 (ip), vehicle: saline",145 % of control
same,T/C,"dose: 50.0 mg/kg/injection, schedule: Q01DX001 (ip), vehicle: Klucel (hydroxypropylcellulose) (HPC)","93 [2 of 3 alive], 99, 125, 140, 143, 148, 150, 151, 153 (2×), 158, 159 (2×), 160, 161, 162, 166, 166 [5 of 6 alive], 168, 169, 171 (2×), 174, 175, 176, 178, 181, 183 (2×), 188 % of control"
same,survivor count,"dose: 50.0 mg/kg/injection, schedule: Q01DX009 (ip), vehicle: water",7 of 8
same,T/C,"dose: 60.0 mg/kg/injection, schedule: Q04DX002 (ip), vehicle: Klucel (hydroxypropylcellulose) (HPC), evaluated on day 30","124 (2×), 125, 126, 128, 129, 144, 149, 154, 160, 161, 162, 166, 168 (2×), 169, 170, 173, 182, 182 [5 of 6 alive], 184, 185, 186, 205, 207 (2×), 208, 216 % of control"
same,T/C,"dose: 60.0 mg/kg/injection, schedule: Q04DX002 (ip), vehicle: Klucel (hydroxypropylcellulose) (HPC), evaluated on day 35",152 % of control
same,survivor count,"dose: 60.0 mg/kg/injection, schedule: Q04DX002 (ip), vehicle: Klucel (hydroxypropylcellulose) (HPC)",3 of 3
same,T/C,"dose: 60.0 mg/kg/injection, schedule: Q04DX003 (ip), vehicle: Klucel (hydroxypropylcellulose) (HPC), evaluated on day 30","104, 111, 129, 138, 150, 152, 153 (2×), 155, 156, 162, 168, 169, 177 (2×), 178, 180, 183, 185 (2×), 187, 190 (3×), 191, 200 (2×), 214, 218, 238, 260 % of control"
same,T/C,"dose: 60.0 mg/kg/injection, schedule: Q04DX003 (ip), vehicle: Klucel (hydroxypropylcellulose) (HPC), evaluated on day 35",205 % of control
same,T/C,"dose: 80.0 mg/kg/injection, schedule: Q01DX005 (ip), vehicle: Klucel (hydroxypropylcellulose) (HPC), evaluated on day 30","90, 91 (2×), 92, 95 [5 of 6 alive], 102 (2×), 107 (2×), 117, 120, 122, 123, 125, 128, 131, 133, 136, 143, 149, 159, 175, 183, 186, 217 % of control"
same,T/C,"dose: 80.0 mg/kg/injection, schedule: Q01DX005 (ip), vehicle: Klucel (hydroxypropylcellulose) (HPC), evaluated on day 35",88 % of control
same,survivor count,"dose: 80.0 mg/kg/injection, schedule: Q01DX005 (ip), vehicle: Klucel (hydroxypropylcellulose) (HPC)","2 of 3, 3 of 3, 6 of 6"
same,T/C,"dose: 80.0 mg/kg/injection, schedule: Q01DX009 (ip), vehicle: Klucel (hydroxypropylcellulose) (HPC), evaluated on day 30","86, 87, 89, 91, 97 (2×), 98 (2×), 104, 107, 109, 110, 114, 119, 137, 138, 139, 170, 188 % of control"
same,T/C,"dose: 80.0 mg/kg/injection, schedule: Q01DX009 (ip), vehicle: Klucel (hydroxypropylcellulose) (HPC), evaluated on day 35",92 % of control
same,survivor count,"dose: 80.0 mg/kg/injection, schedule: Q01DX009 (ip), vehicle: Klucel (hydroxypropylcellulose) (HPC)","3 of 6, 2 of 3, 4 of 6, 3 of 3, 6 of 6"
same,T/C,"dose: 80.0 mg/kg/injection, schedule: Q01DX009 (ip), vehicle: saline",136 % of control
same,survivor count,"dose: 80.0 mg/kg/injection, schedule: Q01DX009 (ip), vehicle: water",4 of 8
same,T/C,"dose: 100.0 mg/kg/injection, schedule: Q01DX001 (ip), vehicle: Klucel (hydroxypropylcellulose) (HPC)","108, 110, 112, 120, 137, 143 [2 of 3 alive], 144, 151, 152, 157, 162, 165, 169, 171, 172, 174, 180 (2×), 181, 182, 186, 187, 188 (2×), 190, 191, 195, 199, 203, 225 % of control"
same,T/C,"dose: 100.0 mg/kg/injection, schedule: Q04DX002 (ip), vehicle: Klucel (hydroxypropylcellulose) (HPC)","118, 141, 146, 155 % of control"
same,survivor count,"dose: 120.0 mg/kg/injection, schedule: Q01DX009 (ip), vehicle: saline",6 of 6
same,T/C,"dose: 120.0 mg/kg/injection, schedule: Q04DX002 (ip), vehicle: Klucel (hydroxypropylcellulose) (HPC), evaluated on day 30","116, 122, 124, 125 (2×), 126, 138, 139, 143, 153, 158, 163, 172 (2×), 176, 178, 179, 181, 185, 189, 194, 195, 200, 239, 240, 252, 258, 261 % of control"
same,T/C,"dose: 120.0 mg/kg/injection, schedule: Q04DX002 (ip), vehicle: Klucel (hydroxypropylcellulose) (HPC), evaluated on day 35",173 % of control
same,survivor count,"dose: 120.0 mg/kg/injection, schedule: Q04DX002 (ip), vehicle: Klucel (hydroxypropylcellulose) (HPC)",3 of 3
same,T/C,"dose: 120.0 mg/kg/injection, schedule: Q04DX003 (ip), vehicle: Klucel (hydroxypropylcellulose) (HPC), evaluated on day 30","125, 127, 129, 131, 132, 140, 145 (2×), 146, 147, 149, 159, 163 (2×), 169, 170, 171 (2×), 172 (2×), 175, 182, 186, 187 (2×), 189, 203, 204, 217, 230, 256 % of control"
same,T/C,"dose: 120.0 mg/kg/injection, schedule: Q04DX003 (ip), vehicle: Klucel (hydroxypropylcellulose) (HPC), evaluated on day 35",272 % of control
same,T/C,"dose: 120.0 mg/kg/injection, schedule: Q04DX003 (ip), vehicle: Klucel (hydroxypropylcellulose) (HPC), evaluated on day 60",178 % of control
same,T/C,"dose: 167.0 mg/kg/injection, schedule: Q04DX003 (ip), vehicle: other",139 % of control
same,T/C,"dose: 200.0 mg/kg/injection, schedule: Q01DX001 (ip), vehicle: Klucel (hydroxypropylcellulose) (HPC)","113, 131, 135, 137, 140 [5 of 6 alive], 142, 146, 150, 155 (2×), 157, 161, 166, 170, 172, 177, 182, 186, 187 (2×), 196, 198, 200, 202, 205, 213, 221, 230, 245, 263 % of control"
same,T/C,"dose: 200.0 mg/kg/injection, schedule: Q04DX002 (ip), vehicle: Klucel (hydroxypropylcellulose) (HPC)","137, 150, 153, 190 % of control"
same,survivor count,"dose: 240.0 mg/kg/injection, schedule: Q01DX009 (ip), vehicle: saline",2 of 6 and 3 of 6
same,T/C,"dose: 240.0 mg/kg/injection, schedule: Q04DX002 (ip), vehicle: Klucel (hydroxypropylcellulose) (HPC), evaluated on day 30","93, 98, 99, 102, 105, 117, 122, 124 [5 of 6 alive], 126 (2×), 129, 131, 137 (2×), 138, 139, 140, 145 (3×), 150, 157, 159, 172, 184, 193, 211 % of control"
same,T/C,"dose: 240.0 mg/kg/injection, schedule: Q04DX002 (ip), vehicle: Klucel (hydroxypropylcellulose) (HPC), evaluated on day 35",162 % of control
same,survivor count,"dose: 240.0 mg/kg/injection, schedule: Q04DX002 (ip), vehicle: Klucel (hydroxypropylcellulose) (HPC)",3 of 6 and 3 of 3
same,T/C,"dose: 240.0 mg/kg/injection, schedule: Q04DX003 (ip), vehicle: Klucel (hydroxypropylcellulose) (HPC), evaluated on day 30","93, 94, 96, 104, 108, 118, 119, 123, 125, 126, 128, 131, 136 (2×), 139, 142, 143 (2×), 145 (2×), 147, 154, 158 [5 of 6 alive], 159, 162, 166, 169, 186, 189, 198, 211 % of control"
same,T/C,"dose: 240.0 mg/kg/injection, schedule: Q04DX003 (ip), vehicle: Klucel (hydroxypropylcellulose) (HPC), evaluated on day 35",144 % of control
same,survivor count,"dose: 320.0 mg/kg/injection, schedule: Q04DX003 (ip), vehicle: other",8 of 8
same,T/C,"dose: 400.0 mg/kg/injection, schedule: Q01DX001 (ip), vehicle: Klucel (hydroxypropylcellulose) (HPC)","88, 98, 100, 106 [5 of 6 alive], 110, 121, 125, 126, 127, 133 (2×), 135, 137 [2 of 3 alive], 138, 143, 146 [5 of 6 alive], 151, 154, 155, 158, 161, 168, 170, 190, 194, 208, 210, 216, 217, 224 % of control"
same,T/C,"dose: 400.0 mg/kg/injection, schedule: Q04DX002 (ip), vehicle: Klucel (hydroxypropylcellulose) (HPC)","96, 128, 136, 175 % of control"
same,T/C,"dose: 800.0 mg/kg/injection, schedule: Q04DX002 (ip), vehicle: Klucel (hydroxypropylcellulose) (HPC)",136 % of control
